The other results are listed elsewhere or left out.
Legend:
Experiment in all cases: log2 fold change, soluble protein after heating vs DMSO (PISA); higher = thermal stabilisation; K562 lysate, 10 uM; active = over 0.2 and 3.5 SD of the protein, either way, in both replicates (recomputed)
ibrutinib = compound: C=CC(=O)N1CCC[C@@H](n2nc(-c3ccc(Oc4ccccc4)cc3)c3c(N)ncnc32)C1 [ibrutinib]
In short: (§1)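 K562 pellets were dounce-homogenised in PBS pH 7.4 containing 1 mM MgCl2, and the crude extract, at 1 mg/mL protein, was exposed to 10 μM compound for 30 min. Aliquots were heated for 3 min across 48°C-58°C, pooled, brought to 0.5% NP-40 at 4°C and spun at 21,000xg for 90 min, with the supernatant taken as soluble protein. TMTpro 16plex LC-MS/MS with equalised channel sums quantified that protein. Values are log-two fold changes in thermal stability relative to solvent controls, taken from duplicates.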

Sequences of proteins named here, by UniProt entry; tags and fusion partners are left off. A change or cut given only in a name is not applied to a line headed by its entry.
UniProt Q6PI78: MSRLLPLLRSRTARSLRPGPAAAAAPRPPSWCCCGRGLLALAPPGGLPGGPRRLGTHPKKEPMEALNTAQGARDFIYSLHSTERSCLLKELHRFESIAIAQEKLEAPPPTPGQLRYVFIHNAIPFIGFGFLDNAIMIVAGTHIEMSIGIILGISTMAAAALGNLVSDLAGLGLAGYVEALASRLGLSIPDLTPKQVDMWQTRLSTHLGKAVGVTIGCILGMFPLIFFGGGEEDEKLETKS
UniProt O14773: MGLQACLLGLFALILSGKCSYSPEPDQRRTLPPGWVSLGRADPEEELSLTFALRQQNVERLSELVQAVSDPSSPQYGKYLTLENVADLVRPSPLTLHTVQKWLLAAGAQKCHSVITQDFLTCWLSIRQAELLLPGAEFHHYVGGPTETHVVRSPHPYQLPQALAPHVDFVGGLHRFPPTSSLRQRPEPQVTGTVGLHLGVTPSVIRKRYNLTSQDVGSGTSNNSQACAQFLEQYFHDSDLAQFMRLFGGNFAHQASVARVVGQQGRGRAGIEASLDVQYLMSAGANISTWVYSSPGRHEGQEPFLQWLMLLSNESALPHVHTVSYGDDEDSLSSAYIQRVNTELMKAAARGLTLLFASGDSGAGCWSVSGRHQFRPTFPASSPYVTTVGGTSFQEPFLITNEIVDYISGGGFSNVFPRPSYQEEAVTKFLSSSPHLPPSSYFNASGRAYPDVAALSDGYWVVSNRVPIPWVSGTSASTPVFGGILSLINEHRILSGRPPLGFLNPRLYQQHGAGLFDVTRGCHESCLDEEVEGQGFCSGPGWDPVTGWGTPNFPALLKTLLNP
UniProt Q9P0U1: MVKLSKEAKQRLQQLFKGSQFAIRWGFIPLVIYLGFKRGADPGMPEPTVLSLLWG
UniProt P60174, whole entry, looked up: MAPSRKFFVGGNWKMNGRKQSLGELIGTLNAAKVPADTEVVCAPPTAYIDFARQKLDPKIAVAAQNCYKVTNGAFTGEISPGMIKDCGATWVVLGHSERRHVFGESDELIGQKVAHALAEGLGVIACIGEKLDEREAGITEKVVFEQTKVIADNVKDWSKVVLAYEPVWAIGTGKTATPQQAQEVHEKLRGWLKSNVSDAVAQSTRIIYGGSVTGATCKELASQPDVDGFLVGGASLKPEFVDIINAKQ
UniProt Q02880: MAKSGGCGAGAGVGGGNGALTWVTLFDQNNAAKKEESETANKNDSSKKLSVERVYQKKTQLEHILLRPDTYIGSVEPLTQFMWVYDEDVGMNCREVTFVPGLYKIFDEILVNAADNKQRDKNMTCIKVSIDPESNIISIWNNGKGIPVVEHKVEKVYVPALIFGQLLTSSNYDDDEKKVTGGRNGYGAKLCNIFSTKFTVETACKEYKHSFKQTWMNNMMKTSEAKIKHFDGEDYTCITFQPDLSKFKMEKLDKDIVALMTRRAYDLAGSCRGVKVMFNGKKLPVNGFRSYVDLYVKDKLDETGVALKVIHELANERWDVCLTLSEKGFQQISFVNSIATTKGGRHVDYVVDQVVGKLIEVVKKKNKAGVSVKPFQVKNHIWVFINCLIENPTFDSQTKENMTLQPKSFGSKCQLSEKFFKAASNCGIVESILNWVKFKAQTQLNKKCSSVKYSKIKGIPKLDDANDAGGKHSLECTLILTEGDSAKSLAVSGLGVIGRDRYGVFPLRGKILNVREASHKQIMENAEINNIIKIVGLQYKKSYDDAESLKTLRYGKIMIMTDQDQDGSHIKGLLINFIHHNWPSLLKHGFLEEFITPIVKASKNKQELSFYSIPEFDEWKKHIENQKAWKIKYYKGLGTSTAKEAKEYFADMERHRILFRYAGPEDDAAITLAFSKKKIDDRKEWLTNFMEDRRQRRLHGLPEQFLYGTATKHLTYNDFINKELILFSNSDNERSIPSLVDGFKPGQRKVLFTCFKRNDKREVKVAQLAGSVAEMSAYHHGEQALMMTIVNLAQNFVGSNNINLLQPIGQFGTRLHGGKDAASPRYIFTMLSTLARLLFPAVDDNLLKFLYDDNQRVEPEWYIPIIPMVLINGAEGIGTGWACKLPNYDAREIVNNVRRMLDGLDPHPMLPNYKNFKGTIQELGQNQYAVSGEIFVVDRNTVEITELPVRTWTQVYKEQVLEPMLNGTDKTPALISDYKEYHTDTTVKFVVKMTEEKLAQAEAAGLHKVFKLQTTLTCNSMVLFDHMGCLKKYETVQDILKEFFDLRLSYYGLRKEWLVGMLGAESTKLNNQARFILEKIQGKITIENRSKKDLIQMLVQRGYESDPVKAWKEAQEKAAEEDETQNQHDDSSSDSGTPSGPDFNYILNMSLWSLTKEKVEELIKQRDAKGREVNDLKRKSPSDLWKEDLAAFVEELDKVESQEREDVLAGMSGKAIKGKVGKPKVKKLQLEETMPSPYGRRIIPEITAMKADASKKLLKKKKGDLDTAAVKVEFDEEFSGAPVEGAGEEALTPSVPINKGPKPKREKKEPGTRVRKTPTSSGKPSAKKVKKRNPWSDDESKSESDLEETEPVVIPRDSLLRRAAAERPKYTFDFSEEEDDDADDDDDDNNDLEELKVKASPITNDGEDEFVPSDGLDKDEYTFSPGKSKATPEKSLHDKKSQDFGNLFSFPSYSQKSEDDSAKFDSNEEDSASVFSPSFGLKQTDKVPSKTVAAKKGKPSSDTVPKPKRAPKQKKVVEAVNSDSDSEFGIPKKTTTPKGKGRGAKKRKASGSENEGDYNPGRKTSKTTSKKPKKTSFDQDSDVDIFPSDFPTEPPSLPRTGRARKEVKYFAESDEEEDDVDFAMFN
UniProt Q9NVV0: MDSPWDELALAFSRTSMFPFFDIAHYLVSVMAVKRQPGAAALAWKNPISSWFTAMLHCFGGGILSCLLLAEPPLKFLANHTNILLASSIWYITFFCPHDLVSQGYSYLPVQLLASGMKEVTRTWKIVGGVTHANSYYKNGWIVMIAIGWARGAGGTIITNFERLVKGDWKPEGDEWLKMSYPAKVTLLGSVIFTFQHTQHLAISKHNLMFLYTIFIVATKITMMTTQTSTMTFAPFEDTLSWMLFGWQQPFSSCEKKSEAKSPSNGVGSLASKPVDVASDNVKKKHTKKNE
UniProt Q13625: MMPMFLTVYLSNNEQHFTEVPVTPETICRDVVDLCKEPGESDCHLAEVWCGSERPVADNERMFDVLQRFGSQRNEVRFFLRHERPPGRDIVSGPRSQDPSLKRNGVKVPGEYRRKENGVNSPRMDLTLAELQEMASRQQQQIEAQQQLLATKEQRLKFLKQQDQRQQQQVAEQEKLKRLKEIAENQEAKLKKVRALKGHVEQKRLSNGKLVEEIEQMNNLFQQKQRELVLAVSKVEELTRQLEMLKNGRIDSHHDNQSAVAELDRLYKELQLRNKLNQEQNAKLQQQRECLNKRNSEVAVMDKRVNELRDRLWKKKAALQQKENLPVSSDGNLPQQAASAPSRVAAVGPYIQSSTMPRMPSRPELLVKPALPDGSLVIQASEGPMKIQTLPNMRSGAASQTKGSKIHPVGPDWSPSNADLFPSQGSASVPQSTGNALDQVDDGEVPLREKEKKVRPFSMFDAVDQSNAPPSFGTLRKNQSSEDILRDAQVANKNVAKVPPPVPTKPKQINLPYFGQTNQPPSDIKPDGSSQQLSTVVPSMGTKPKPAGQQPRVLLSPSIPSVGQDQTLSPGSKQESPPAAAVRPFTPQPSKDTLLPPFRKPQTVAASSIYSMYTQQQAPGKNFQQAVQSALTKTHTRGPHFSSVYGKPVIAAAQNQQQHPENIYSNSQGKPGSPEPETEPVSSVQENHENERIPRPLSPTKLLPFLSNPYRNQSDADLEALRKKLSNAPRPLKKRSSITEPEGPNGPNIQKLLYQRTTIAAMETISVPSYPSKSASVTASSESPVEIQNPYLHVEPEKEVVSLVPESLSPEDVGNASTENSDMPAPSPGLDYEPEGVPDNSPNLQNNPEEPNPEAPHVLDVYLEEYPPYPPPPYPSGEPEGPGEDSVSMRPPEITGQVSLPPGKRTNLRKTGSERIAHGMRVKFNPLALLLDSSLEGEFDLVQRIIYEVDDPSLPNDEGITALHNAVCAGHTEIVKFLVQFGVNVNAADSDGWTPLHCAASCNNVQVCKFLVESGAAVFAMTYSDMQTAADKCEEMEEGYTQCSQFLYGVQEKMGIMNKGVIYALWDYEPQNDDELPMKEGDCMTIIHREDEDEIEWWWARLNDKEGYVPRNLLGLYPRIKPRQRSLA
UniProt Q12888: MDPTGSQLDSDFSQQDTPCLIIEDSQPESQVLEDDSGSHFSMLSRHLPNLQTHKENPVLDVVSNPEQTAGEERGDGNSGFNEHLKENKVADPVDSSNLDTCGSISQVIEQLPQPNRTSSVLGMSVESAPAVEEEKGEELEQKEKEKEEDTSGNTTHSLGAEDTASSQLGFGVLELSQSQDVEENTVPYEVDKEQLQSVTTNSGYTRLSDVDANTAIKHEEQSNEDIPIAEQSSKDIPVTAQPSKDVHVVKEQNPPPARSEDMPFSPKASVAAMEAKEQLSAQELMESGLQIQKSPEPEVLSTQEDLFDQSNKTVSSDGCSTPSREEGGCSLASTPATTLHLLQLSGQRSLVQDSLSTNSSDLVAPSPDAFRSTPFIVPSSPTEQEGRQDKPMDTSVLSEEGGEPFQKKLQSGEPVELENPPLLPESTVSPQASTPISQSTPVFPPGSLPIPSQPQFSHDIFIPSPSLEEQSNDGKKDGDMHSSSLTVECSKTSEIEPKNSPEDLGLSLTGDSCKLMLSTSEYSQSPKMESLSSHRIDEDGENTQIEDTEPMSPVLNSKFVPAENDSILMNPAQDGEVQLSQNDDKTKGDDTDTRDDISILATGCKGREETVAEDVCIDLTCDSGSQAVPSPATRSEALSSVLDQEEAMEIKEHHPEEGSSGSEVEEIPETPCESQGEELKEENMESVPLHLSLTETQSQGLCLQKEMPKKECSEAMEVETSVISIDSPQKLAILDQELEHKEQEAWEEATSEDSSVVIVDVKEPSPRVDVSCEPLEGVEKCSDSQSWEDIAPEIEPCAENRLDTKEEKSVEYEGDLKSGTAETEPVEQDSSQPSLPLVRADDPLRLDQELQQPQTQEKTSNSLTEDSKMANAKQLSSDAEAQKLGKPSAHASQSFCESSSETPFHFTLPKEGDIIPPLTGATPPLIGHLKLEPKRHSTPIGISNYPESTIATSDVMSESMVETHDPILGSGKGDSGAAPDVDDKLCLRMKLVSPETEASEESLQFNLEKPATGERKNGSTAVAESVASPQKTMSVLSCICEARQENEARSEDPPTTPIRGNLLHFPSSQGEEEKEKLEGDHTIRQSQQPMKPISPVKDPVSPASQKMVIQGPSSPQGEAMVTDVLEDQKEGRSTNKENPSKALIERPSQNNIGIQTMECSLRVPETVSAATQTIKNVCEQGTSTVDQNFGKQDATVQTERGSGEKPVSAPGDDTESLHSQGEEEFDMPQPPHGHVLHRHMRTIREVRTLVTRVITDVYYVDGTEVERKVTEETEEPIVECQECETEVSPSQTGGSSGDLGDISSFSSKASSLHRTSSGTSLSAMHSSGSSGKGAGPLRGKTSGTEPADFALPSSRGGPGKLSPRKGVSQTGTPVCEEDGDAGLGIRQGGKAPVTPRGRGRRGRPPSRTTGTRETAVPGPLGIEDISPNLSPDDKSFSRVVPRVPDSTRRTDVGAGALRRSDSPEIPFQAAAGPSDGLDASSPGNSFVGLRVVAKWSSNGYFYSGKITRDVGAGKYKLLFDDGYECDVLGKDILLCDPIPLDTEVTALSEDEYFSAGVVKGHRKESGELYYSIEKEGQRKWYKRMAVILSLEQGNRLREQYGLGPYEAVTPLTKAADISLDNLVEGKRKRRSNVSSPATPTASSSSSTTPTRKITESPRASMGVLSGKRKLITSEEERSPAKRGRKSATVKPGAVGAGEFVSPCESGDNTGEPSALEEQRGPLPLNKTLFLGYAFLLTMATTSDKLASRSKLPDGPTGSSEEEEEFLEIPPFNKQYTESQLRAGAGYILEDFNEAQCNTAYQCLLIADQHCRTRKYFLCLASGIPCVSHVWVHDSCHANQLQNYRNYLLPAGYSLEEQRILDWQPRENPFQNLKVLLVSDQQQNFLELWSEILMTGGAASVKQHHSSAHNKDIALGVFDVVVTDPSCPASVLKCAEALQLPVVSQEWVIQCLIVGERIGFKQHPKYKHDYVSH
UniProt P62995: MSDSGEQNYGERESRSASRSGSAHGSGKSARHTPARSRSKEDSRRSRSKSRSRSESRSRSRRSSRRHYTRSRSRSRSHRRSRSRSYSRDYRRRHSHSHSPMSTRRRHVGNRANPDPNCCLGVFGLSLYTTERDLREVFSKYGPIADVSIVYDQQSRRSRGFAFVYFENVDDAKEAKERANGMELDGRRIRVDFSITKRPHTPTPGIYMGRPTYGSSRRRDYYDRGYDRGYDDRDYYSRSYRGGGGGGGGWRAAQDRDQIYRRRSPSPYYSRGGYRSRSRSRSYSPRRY

[1] = compound: CC(=O)c1cnc2ccc(-c3cc(Cl)c(O)c(Cl)c3)nc2c1N[C@H]1CC[C@H](CN(C)C)CC1
In short: as §1

ralimetinib = compound: CC(C)(C)Cn1c(N)nc2ccc(-c3[nH]c(C(C)(C)C)nc3-c3ccc(F)cc3)nc21 [ralimetinib]
In short: as §1

[2] = compound: CC(C)(O)CC(=O)NCCn1ccc2ncnc(Nc3ccc(Oc4cccc(C(F)(F)F)c4)c(Cl)c3)c21
In short: as §1

[3] = compound: CC(C)C1=C2N=C(C=C(N2N=C1)NCC3=CC=CC=C3)NCCCCCCN
In short: as §1

[4] = compound: CC1=C(C(CC(=O)N1)C2=CC=C(C=C2)C(F)(F)F)C(=O)NC3=C(C=C4C(=C3)C=NN4)F
In short: as §1

[5] = compound: CC1=C(C2=C(C=C1)C(=O)C3=CC=CC=C3N2CCCN)C
In short: as §1

[6] = compound: CC1=C(C=C(C=C1)NC(=O)C2=CC(=CC=C2)C(C)(C)C#N)NC3=CC4=C(C=C3)N=CN(C4=O)C
In short: as §1

[7] = compound: CC1=C(C=C(C=C1)NC(=O)C2=CC(=CC=C2)N(C)C)NC(=O)C3=CC=C(C=C3)O
In short: as §1

[8] = compound: CC1=CC=C(C=C1)SC2=C3C=C(SC3=CN=C2)C(=O)N
In short: as §1

vemurafenib = compound: CCCS(=O)(=O)Nc1ccc(F)c(C(=O)c2c[nH]c3ncc(-c4ccc(Cl)cc4)cc23)c1F [vemurafenib]
In short: as §1

[9] = compound: CCCS(=O)(=O)Nc1ccc(F)c(C(=O)c2c[nH]c3ncc(Cl)cc23)c1F
In short: as §1

barasertib = compound: CCN(CCCOc1ccc2c(Nc3cc(CC(=O)Nc4cccc(F)c4)[nH]n3)ncnc2c1)CCOP(=O)(O)O [barasertib]
In short: as §1

[10] = compound: CC[C@@H]1C(=O)N(C)c2cnc(Nc3ccc(C(=O)NC4CCN(C)CC4)cc3OC)nc2N1C1CCCC1
In short: as §1

volasertib = compound: CC[C@@H]1C(=O)N(C)c2cnc(Nc3ccc(C(=O)N[C@H]4CC[C@H](N5CCN(CC6CC6)CC5)CC4)cc3OC)nc2N1C(C)C [volasertib]
In short: as §1

[11] = compound: CCn1c(C(=O)N(C2CC2)C2CC2)cc2c3c(ncn3C)c(Nc3cc(C)n(C)n3)nc21
In short: as §1

[12] = compound: CCn1cc(-c2ccnc3[nH]c(-c4cccc(CN(C)C)c4)cc23)c(-c2ccc(NC(=O)N(C)C)cc2)n1
In short: as §1

[13] = compound: CN1CCC(CNc2ccc3ncc(-c4cccc(OC(F)(F)F)c4)n3n2)CC1
In short: as §1

saracatinib = compound: CN1CCN(CCOc2cc(OC3CCOCC3)c3c(Nc4c(Cl)ccc5c4OCO5)ncnc3c2)CC1 [saracatinib]
In short: as §1

sotrastaurin = compound: CN1CCN(c2nc(C3=C(c4c[nH]c5ccccc45)C(=O)NC3=O)c3ccccc3n2)CC1 [sotrastaurin]
In short: as §1

Measured: log2 fold change

TMEM65 (UniProt Q6PI78)
inactive: ibrutinib -0.07 | [1] -0.077 | ralimetinib -0.035 | [2] -0.134 | [3] -0.039 | [4] 0.064 | [5] -0.017 | [6] 0.064 | [7] -0.037 | [8] -0.035 | vemurafenib -0.042 | [9] 0.059 | barasertib 0.103 | [10] -0.096 | volasertib -0.056 | [11] -0.009 | [12] -0.045 | [13] -0.002 | saracatinib -0.052 | sotrastaurin -0.02

TPP1 (UniProt O14773)
inactive: ibrutinib 0.042 | [1] 0.021 | ralimetinib -0.043 | [2] -0.016 | [3] 0.001 | [4] 0.002 | [5] 0.003 | [6] 0.017 | [7] 0.016 | [8] -0.015 | vemurafenib -0.032 | [9] 0.014 | barasertib 0.026 | [10] 0.022 | volasertib -0.048 | [11] 0.005 | [12] -0.025 | [13] -0.018 | saracatinib -0.002 | sotrastaurin 0.033

TNFRSF1B (UniProt P20333)
inactive: ibrutinib -0.069 | [1] 0.152 | ralimetinib 0.033 | [2] -0.046 | [3] 0.016 | [4] 0.066 | [5] -0.057 | [6] 0 | [7] 0.034 | [8] 0.147 | vemurafenib 0.077 | [9] -0.064 | barasertib -0.052 | [10] 0.028 | volasertib 0.108 | [11] -0.023 | [12] -0.204 | [13] 0.136 | saracatinib 0.03 | sotrastaurin 0.013

TNFRSF10B (UniProt O14763)
inactive: ibrutinib 0.052 | [1] 0.015 | ralimetinib 0.009 | [2] 0.009 | [3] -0.062 | [4] 0.041 | [5] 0.018 | [6] 0.017 | [7] -0.049 | [8] 0.019 | vemurafenib 0.066 | [9] -0.006 | barasertib 0.004 | [10] 0.018 | volasertib 0.051 | [11] 0.051 | [12] -0.015 | [13] 0.033 | saracatinib 0.034 | sotrastaurin -0.026

Taken from the listing (2 entries):
TMEM65 (UniProt Q6PI78)
inactive: ibrutinib -0.07 | [1] -0.077 | ralimetinib -0.035 | [2] -0.134 | [3] -0.039 | [4] 0.064 | [5] -0.017 | [6] 0.064 | [7] -0.037 | [8] -0.035 | vemurafenib -0.042 | [9] 0.059 | barasertib 0.103 | [10] -0.096 | volasertib -0.056 | [11] -0.009 | [12] -0.045 | [13] -0.002 | saracatinib -0.052 | sotrastaurin -0.02

TPP1 (UniProt O14773)
inactive: ibrutinib 0.042 | [1] 0.021 | ralimetinib -0.043 | [2] -0.016 | [3] 0.001 | [4] 0.002 | [5] 0.003 | [6] 0.017 | [7] 0.016 | [8] -0.015 | vemurafenib -0.032 | [9] 0.014 | barasertib 0.026 | [10] 0.022 | volasertib -0.048 | [11] 0.005 | [12] -0.025 | [13] -0.018 | saracatinib -0.002 | sotrastaurin 0.033

(cont.)

TMPO (UniProt P42167)
inactive: ibrutinib -0.003 | [1] 0.009 | ralimetinib 0.018 | [2] -0.001 | [3] -0.044 | [4] 0.006 | [5] 0.005 | [6] -0.043 | [7] -0.006 | [8] -0.064 | vemurafenib 0.063 | [9] 0.008 | barasertib 0.003 | [10] -0.01 | volasertib 0.013 | [11] 0.022 | [12] 0.033 | [13] -0.033 | saracatinib 0.014 | sotrastaurin -0.014

TOMM7 (UniProt Q9P0U1)
inactive: ibrutinib 0.065 | [1] -0.049 | ralimetinib 0.037 | [2] -0.012 | [3] 0.008 | [4] 0.011 | [5] -0.045 | [6] 0.131 | [7] -0.065 | [8] -0.007 | vemurafenib 0 | [9] 0.013 | barasertib 0.042 | [10] 0.056 | volasertib 0.034 | [11] -0.061 | [12] -0.091 | [13] -0.049 | saracatinib -0.002 | sotrastaurin -0.13

TPM3 isoform 2 (UniProt P06753)
inactive: ibrutinib 0.03 | [1] -0.007 | ralimetinib -0.02 | [2] 0.05 | [3] -0.034 | [4] -0.005 | [5] -0.019 | [6] -0.073 | [7] 0.002 | [8] -0.006 | vemurafenib -0.052 | [9] -0.024 | barasertib -0.016 | [10] -0.07 | volasertib 0.007 | [11] 0.026 | [12] 0.196 | [13] -0.179 | saracatinib -0.009 | sotrastaurin 0.025

TPI1 (UniProt P60174)
inactive: ibrutinib -0.026 | [1] -0.001 | ralimetinib 0.097 | [2] -0.035 | [3] 0.008 | [4] -0.033 | [5] -0.003 | [6] 0.012 | [7] -0.019 | [8] -0.001 | vemurafenib 0.011 | [9] -0.002 | barasertib -0.008 | [10] 0 | volasertib 0.031 | [11] -0.037 | [12] -0.082 | [13] 0.067 | saracatinib 0.025 | sotrastaurin -0.039

TOP2B isoform 2 (UniProt Q02880)
inactive: ibrutinib 0.008 | [1] -0.006 | ralimetinib 0.016 | [2] -0.032 | [3] -0.032 | [4] -0.015 | [5] -0.086 | [6] -0.034 | [7] 0.019 | [8] 0.013 | vemurafenib -0.031 | [9] 0.024 | barasertib 0.008 | [10] -0.037 | volasertib -0.007 | [11] -0.003 | [12] 0.209 | [13] -0.077 | saracatinib 0.033 | sotrastaurin 0.018

TMEM38B (UniProt Q9NVV0)
inactive: ibrutinib -0.015 | [1] 0.005 | ralimetinib 0.007 | [2] -0.065 | [3] 0.054 | [4] -0.009 | [5] -0.102 | [6] -0.005 | [7] 0.001 | [8] -0.057 | vemurafenib -0.016 | [9] 0.027 | barasertib -0.001 | [10] -0.011 | volasertib -0.007 | [11] -0.08 | [12] -0.27 | [13] 0.108 | saracatinib -0.034 | sotrastaurin 0.042

TP53BP2 isoform 3 (UniProt Q13625)
inactive: ibrutinib 0.028 | [1] -0.045 | ralimetinib 0.037 | [2] 0.079 | [3] -0.019 | [4] 0.015 | [5] 0.043 | [6] 0.006 | [7] 0.018 | [8] 0.027 | vemurafenib 0.079 | [9] 0.007 | barasertib 0.06 | [10] 0.054 | volasertib -0.054 | [11] 0.02 | [12] 0.059 | [13] -0.025 | saracatinib 0.018 | sotrastaurin 0.022

TOLLIP (UniProt Q9H0E2)
inactive: ibrutinib 0.009 | [1] 0.001 | ralimetinib 0.002 | [2] -0.004 | [3] -0.016 | [4] 0.047 | [5] -0.009 | [6] 0.235 | [7] 0.025 | [8] -0.005 | vemurafenib 0.025 | [9] 0 | barasertib 0.004 | [10] 0.047 | volasertib -0.011 | [11] 0.045 | [12] -0.064 | [13] 0.025 | saracatinib 0 | sotrastaurin -0.099

TP53BP1 isoform 2 (UniProt Q12888)
inactive: ibrutinib -0.011 | [1] -0.017 | ralimetinib 0.017 | [2] -0.013 | [3] -0.023 | [4] 0.011 | [5] -0.033 | [6] 0.006 | [7] 0.013 | [8] -0.012 | vemurafenib -0.019 | [9] 0.02 | barasertib 0.009 | [10] 0.015 | volasertib 0.012 | [11] -0.021 | [12] -0.031 | [13] 0.033 | saracatinib 0.022 | sotrastaurin 0.023

TOMM40L (UniProt Q969M1)
inactive: ibrutinib 0.099 | [1] -0.005 | ralimetinib 0.055 | [2] -0.09 | [3] -0.012 | [4] 0.019 | [5] -0.031 | [6] 0.069 | [7] -0.098 | [8] -0.004 | vemurafenib 0.03 | [9] 0.024 | barasertib 0.068 | [10] 0.033 | volasertib -0.006 | [11] 0.236 | [12] 0 | [13] 0.091 | saracatinib 0.001 | sotrastaurin -0.004

TRA2B (UniProt P62995)
inactive: ibrutinib 0.017 | [1] -0.009 | ralimetinib -0.013 | [2] -0.024 | [3] 0.049 | [4] 0.011 | [5] -0.072 | [6] 0.064 | [7] 0.043 | [8] 0 | vemurafenib 0.042 | [9] 0.004 | barasertib -0.01 | [10] 0.015 | volasertib -0.015 | [11] -0.008 | [12] 0.008 | [13] -0.004 | saracatinib -0.049 | sotrastaurin 0.027

TMEM259 (UniProt Q4ZIN3)
inactive: ibrutinib -0.024 | [1] -0.076 | ralimetinib 0.035 | [2] -0.007 | [3] 0.111 | [4] -0.003 | [5] -0.048 | [6] -0.004 | [7] 0.007 | [8] 0.069 | vemurafenib -0.016 | [9] -0.009 | barasertib 0.028 | [10] -0.027 | volasertib 0.028 | [11] 0.087 | [12] 1.04 | [13] -0.03 | saracatinib -0.004 | sotrastaurin 0.03

Reference: the supplement of paper PMC10849652
